We go through 27 compounds from PubChem BioAssay AID256 (DTP/NCI, 2004).

The list shows only some results of the screen, not a fair sample: it is rich in T/C values a quarter to a half above the control, in often repeated tests (any T/C) and in doses without a T/C. Other doses and runs of a compound stand elsewhere. T/C gives the treated animals as a percentage of the vehicle group. Some entries give survivors of the animals treated and no T/C: the source files T/C as zero there, which appears to mark a toxic dose or a test without result, not a measured value. Some doses without a T/C left all or most animals alive at the check, yet need not have been tolerated: survival well below the control is almost never listed, so the zero probably covers shortened survival too. Counts of survivors are from the toxicity check (mostly the fifth day) where no day follows; animals may have died later. Schedules are NCI's codes, taken here to give the interval after Q, in days (D) or hours (H), and the number of doses after X. Counts like (3×) say how often a value occurs here. For survival time, the PubChem record calls one and a half times the control and up active, and a quarter to a half above the control has no call in these data; cut-offs in other NCI protocols can differ. Some entries hold several experiments; their values stand side by side, smallest first. Some T/C values are followed by the survivors on the day toxicity was checked, most often the fifth; where none is given, no animal had died by that day.

The subject of this assay is CD2F1 mice, L1210 leukemia ip, survival T/C. Kind of assay: NCI In Vivo Anticancer Drug Screen. Data for tumor model L1210 Leukemia (intraperitoneal) in CD2F1 (CDF1) mice. Conditions: higher T/C = longer survival. The procedure, abridged:
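In this screen, transplantable tumors were grown in mice given either the compound or its vehicle. Results were expressed as the treated measurement relative to the control measurement.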

Where [1] appears, read: T/C endpoint: mean survival time, dose: 200.0 mg/kg/injection, schedule: Q04DX003 (ip), vehicle: saline with Tween-80.
[2] abbreviates: T/C endpoint: mean survival time, dose: 400.0 mg/kg/injection, schedule: Q04DX003 (ip), vehicle: saline with Tween-80.
The mark [3] stands for this setting: T/C endpoint: mean survival time, dose: 400.0 mg/kg/injection, schedule: Q01DX009 (ip), vehicle: saline with Tween-80.
Setting [4] is: T/C endpoint: mean survival time, dose: 300.0 mg/kg/injection, schedule: Q01DX001 (ip), vehicle: saline.
Where [5] appears, read: T/C endpoint: median survival time, dose: 400.0 mg/kg/injection, schedule: Q01DX005 (ip), vehicle: Klucel (hydroxypropylcellulose) (HPC).
Setting [6] is: T/C endpoint: mean survival time, dose: 100.0 mg/kg/injection, schedule: Q04DX003 (ip), vehicle: saline.
The mark [7] stands for this setting: T/C endpoint: mean survival time, dose: 200.0 mg/kg/injection, schedule: Q04DX003 (ip), vehicle: saline.
[8] abbreviates: T/C endpoint: mean survival time, dose: 400.0 mg/kg/injection, schedule: Q04DX003 (ip), vehicle: saline.

On to `O=NN(CCCl)C(=S)NC1CCCCC1`, for which the T/C was 133 % of control (T/C endpoint: mean survival time, dose: 6.25 mg/kg/injection, schedule: Q01DX001 (ip), vehicle: other) and 125 % of control (T/C endpoint: mean survival time, dose: 12.5 mg/kg/injection, schedule: Q01DX001 (ip), vehicle: other). Moreover, the survivor count (T/C endpoint: mean survival time, dose: 100.0 mg/kg/injection, schedule: Q01DX001 (ip), vehicle: other) was 6 of 6 (2×).

As for `O=C1OC(=O)[C@H]2[C@@H]1[C@H]1C=C[C@@H]2OC1=O`, the survivor count (T/C endpoint: median survival time, dose: 400.0 mg/kg/injection, schedule: Q01DX009 (ip), vehicle: saline) is on record as 5 of 6.

For the compound `O=NN(CCCl)C(=S)NCCCl`, the T/C was 143 and 144 % of control (T/C endpoint: mean survival time, dose: 7.5 mg/kg/injection, schedule: Q01DX001 (ip), vehicle: distilled water + Tween-80); 143 % of control (T/C endpoint: mean survival time, dose: 30.0 mg/kg/injection, schedule: Q01DX001 (ip), vehicle: distilled water + Tween-80). In addition, the survivor count (T/C endpoint: mean survival time, dose: 60.0 mg/kg/injection, schedule: Q01DX001 (ip), vehicle: distilled water + Tween-80) is recorded as 3 of 6 and the survivor count (T/C endpoint: mean survival time, dose: 120.0 mg/kg/injection, schedule: Q01DX001 (ip), vehicle: distilled water + Tween-80) is given as 1 of 6.

On to `[CH3][Sb]([CH3])([CH3])([O]C(=O)CBr)[O]C(=O)CBr`, for which the survivor count reads like this: (T/C endpoint: mean survival time, dose: 100.0 mg/kg/injection, schedule: Q04DX003 (ip), vehicle: saline with Tween-80) 3 of 6; under setting [1], 0 of 6; under setting [2], 0 of 6.

Turning to `CS(=O)(=O)OCCOS(C)(=O)=O`, the T/C under setting [3] was 136 % of control.

Consider `Nc1ccccc1-c1nc2ccncc2[nH]1`, for which, under setting [4], the survivor count is 0 of 6.

In the case of `CNC(=S)SC1=NS(=O)(=O)c2ccccc2N1`, the T/C reads like this: (T/C endpoint: median survival time, dose: 240.0 mg/kg/injection, schedule: Q01DX005 (ip), vehicle: Klucel (hydroxypropylcellulose) (HPC)) 127 % of control [4 of 6 alive]; under setting [5], 132 % of control [5 of 6 alive]. In addition, the survivor count was 0 of 6 under setting [5]; 0 of 6 (T/C endpoint: median survival time, dose: 666.67 mg/kg/injection, schedule: Q01DX005 (ip), vehicle: Klucel (hydroxypropylcellulose) (HPC)); 0 of 6 (T/C endpoint: median survival time, dose: 1111.11 mg/kg/injection, schedule: Q01DX005 (ip), vehicle: Klucel (hydroxypropylcellulose) (HPC)).

Consider `CCCCCC(CN(C)C)C(=O)/C=C/c1c(Cl)cccc1Cl` (stereo not given), for which the survivor count runs as follows: (T/C endpoint: mean survival time, dose: 200.0 mg/kg/injection, schedule: Q01DX001 (ip), vehicle: Klucel (hydroxypropylcellulose) (HPC)) 1 of 6; (T/C endpoint: mean survival time, dose: 400.0 mg/kg/injection, schedule: Q01DX001 (ip), vehicle: Klucel (hydroxypropylcellulose) (HPC)) 0 of 6.

Regarding `N#CC(C#N)=C(C#N)c1ccccc1`, the survivor count was 3 of 6 (T/C endpoint: mean survival time, dose: 100.0 mg/kg/injection, schedule: Q01DX001 (ip), vehicle: saline with Tween-80) and 2 of 6 (T/C endpoint: mean survival time, dose: 200.0 mg/kg/injection, schedule: Q01DX001 (ip), vehicle: saline with Tween-80).

`CC(=O)Oc1ccc([N+](=O)[O-])cc1[N+](=O)[O-]`: the survivor count by setting is: (T/C endpoint: mean survival time, dose: 50.0 mg/kg/injection, schedule: Q04DX002 (ip), vehicle: Klucel (hydroxypropylcellulose) (HPC)) 0 of 3; (T/C endpoint: mean survival time, dose: 100.0 mg/kg/injection, schedule: Q04DX002 (ip), vehicle: Klucel (hydroxypropylcellulose) (HPC)) 0 of 3; (T/C endpoint: mean survival time, dose: 200.0 mg/kg/injection, schedule: Q04DX002 (ip), vehicle: Klucel (hydroxypropylcellulose) (HPC)) 0 of 3; (T/C endpoint: mean survival time, dose: 400.0 mg/kg/injection, schedule: Q04DX002 (ip), vehicle: Klucel (hydroxypropylcellulose) (HPC)) 0 of 3.

Turning to `O=C1CC2CCCCN2C2=C1CCCC2` (stereo not given), the survivor count (T/C endpoint: mean survival time, dose: 200.0 mg/kg/injection, schedule: Q04DX003 (ip), vehicle: acetone) is 6 of 6 and the survivor count (T/C endpoint: mean survival time, dose: 400.0 mg/kg/injection, schedule: Q04DX003 (ip), vehicle: acetone) is given as 0 of 6.

For the compound `CC(=O)CC(OC(=O)c1cc([N+](=O)[O-])cc([N+](=O)[O-])c1)(C(F)(F)F)C(F)(F)F`, the survivor count runs as follows: (T/C endpoint: mean survival time, dose: 200.0 mg/kg/injection, schedule: Q04DX003 (ip), vehicle: Klucel (hydroxypropylcellulose) (HPC)) 2 of 6; (T/C endpoint: mean survival time, dose: 400.0 mg/kg/injection, schedule: Q04DX003 (ip), vehicle: Klucel (hydroxypropylcellulose) (HPC)) 0 of 6.

`Cc1cc(C)c([S-])c(C)c1.[Cu+]`: under “T/C endpoint: mean survival time, dose: 18.8 mg/kg/injection, schedule: Q04DX003 (ip), vehicle: saline”, the survivor count is 3 of 6.

Consider `COC1C(N)C(OC2C(Oc3cccc4c(O)c5c(=O)oc6ccc(C)c7c(=O)oc(c34)c5c67)OC(C)C(O)C2(C)O)OC(C)C1O` (stereo not given), for which the T/C is 144 % of control (T/C endpoint: median survival time, dose: 1.8 mg/kg/injection, schedule: Q01DX005 (ip), vehicle: other) and 139 % of control (T/C endpoint: median survival time, dose: 2.5 mg/kg/injection, schedule: Q01DX005 (ip), vehicle: other). In addition, the survivor count is reported as 2 of 6 (T/C endpoint: median survival time, dose: 8.33 mg/kg/injection, schedule: Q01DX005 (ip), vehicle: other); 0 of 6 (T/C endpoint: median survival time, dose: 10.0 mg/kg/injection, schedule: Q01DX005 (ip), vehicle: other); 0 of 6 (T/C endpoint: median survival time, dose: 13.88 mg/kg/injection, schedule: Q01DX005 (ip), vehicle: other); 0 of 6 (T/C endpoint: median survival time, dose: 20.0 mg/kg/injection, schedule: Q01DX005 (ip), vehicle: other).

For `CCCOS(=O)(=O)c1ccc(Cl)c([N+](=O)[O-])c1`, the survivor count (T/C endpoint: mean survival time, dose: 200.0 mg/kg/injection, schedule: Q01DX009 (ip), vehicle: saline with Tween-80) is given as 0 of 6 and the survivor count under setting [2] is recorded as 3 of 6.

With `CCCCOC(=O)Nc1ccccn1`, where the note is “T/C endpoint: mean survival time, dose: 400.0 mg/kg/injection, schedule: Q04DX002 (ip), vehicle: saline with Tween-80”, the survivor count is given as 2 of 3.

On to `C=CCN(C)N=Nc1ccc(C(N)=O)cc1`, for which the T/C (T/C endpoint: mean survival time, dose: 75.0 mg/kg/injection, schedule: Q01DX009 (ip), vehicle: Klucel (hydroxypropylcellulose) (HPC)) is 134 % of control.

Regarding `Cc1cc(C)nc(C)c1.[Cl-].[Cl-].[Cl-].[Cl-].[Pt+2]`, the survivor count runs as follows: under setting [1], 0 of 4; under setting [2], 0 of 4.

`CC(=O)NC1=C(NC(C)C)C(=O)c2ccccc2C1=O`: the survivor count is, setting by setting: under setting [6], 0 of 6; under setting [7], 0 of 6; under setting [8], 0 of 6.

Regarding `O=C(O)CSc1nc(-c2ccccc2)c(-c2ccccc2)n1-c1ccccn1`, the survivor count runs as follows: (T/C endpoint: mean survival time, dose: 200.0 mg/kg/injection, schedule: Q01DX009 (ip), vehicle: water) 1 of 6; (T/C endpoint: mean survival time, dose: 400.0 mg/kg/injection, schedule: Q01DX009 (ip), vehicle: water) 0 of 6.

As to `CC(C)([NH-])C[NH-].[Cl][Pt+2][Cl]`, for the setting “T/C endpoint: median survival time, dose: 320.0 mg/kg/injection, schedule: Q04DX003 (ip), vehicle: saline with Tween-80”, the survivor count is 0 of 6.

In the case of `CCCc1cccc[n+]1CC(=O)c1ccccc1`, the survivor count is recorded as 1 of 6 under setting [6], 0 of 6 under setting [7] and 0 of 6 under setting [8].

In the case of `Nc1ncnc2c1ccn2C1OC2COP(=O)(O)OC2C1O` (stereo not given), the survivor count (T/C endpoint: mean survival time, dose: 80.0 mg/kg/injection, schedule: Q01DX001 (ip), vehicle: saline) was 2 of 6.

In the case of `CN1CC=C(c2ccccc2)CC1`, the survivor count is, setting by setting: (T/C endpoint: mean survival time, dose: 75.0 mg/kg/injection, schedule: Q04DX003 (ip), vehicle: saline) 4 of 6; (T/C endpoint: mean survival time, dose: 150.0 mg/kg/injection, schedule: Q01DX001 (ip), vehicle: saline) 0 of 6; under setting [4], 0 of 6.

For the compound `O=[N+]([O-])c1c[c]([Hg][Cl])c(O)[c]([Hg][Cl])c1`, the survivor count by setting is: (T/C endpoint: mean survival time, dose: 25.0 mg/kg/injection, schedule: Q04DX003 (ip), vehicle: saline with Tween-80) 3 of 6; (T/C endpoint: mean survival time, dose: 50.0 mg/kg/injection, schedule: Q04DX003 (ip), vehicle: saline with Tween-80) 2 of 6.

On to `C[n+]1ccn(Cc2ccc([N+](=O)[O-])cc2)c1`, for which the survivor count (T/C endpoint: mean survival time, dose: 400.0 mg/kg/injection, schedule: Q01DX001 (ip), vehicle: saline) was 0 of 6.

As to `ClC=P(c1ccccc1)(c1ccccc1)c1ccccc1`, the survivor count under setting [3] was 0 of 6.
